± gives the standard deviation of the averaged measurements. The effect of the compound repeats well; differences between the knockouts mostly do not.
Test system: MDA-MB-231
Assay: relative cell number vs DMSO control (72 h) (% of DMSO); higher = less growth inhibition (more cells)
Experimental: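 QMAP-Seq: a pool of 5 breast cancer cell lines (ZR-75-1, SKBR3, HCC-38, MDA-MB-231, BT-20), each carrying 12 doxycycline-inducible Cas9 sgRNA perturbations (11 knockouts plus non-targeting sgNT), was treated with compounds for 72 h at four 10-fold doses (10 nM-10 uM or 1 nM-1 uM range). Barcodes were amplified and sequenced, and cell number was interpolated from 293T spike-in standard curves. The result is expressed as % of the median of DMSO wells. Two biological replicates.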

[1] = sgRNA knockout: sgATF3, 1000 nM
[2] = sgRNA knockout: sgATF4, 1000 nM
[3] = sgRNA knockout: sgATF6, 1000 nM
[4] = sgRNA knockout: sgATG7, 1000 nM
[5] = sgRNA knockout: sgERN1, 1000 nM
[6] = sgRNA knockout: sgHSF1, 1000 nM
[7] = sgRNA knockout: sgHSF2, 1000 nM
[8] = sgRNA knockout: sgKEAP1, 100 nM
[9] = sgRNA knockout: sgKEAP1, 1000 nM
[10] = sgRNA knockout: sgNFE2L2, 10 nM
[11] = sgRNA knockout: sgNFE2L2, 100 nM
[12] = sgRNA knockout: sgNFE2L2, 1000 nM
[13] = sgRNA knockout: sgSLC35F2, 10 nM
[14] = sgRNA knockout: sgSLC35F2, 100 nM
[15] = sgRNA knockout: sgSLC35F2, 1000 nM
[16] = sgRNA knockout: sgXBP1, 1000 nM

CC(C)c1cc(-c2n[nH]c(=O)n2-c2ccc3c(ccn3C)c2)c(O)cc1O [Ganetespib]
relative cell number (sgRNA knockout: sgATF3, 1 nM): 97.4 ± 9.1 | relative cell number (sgRNA knockout: sgATF3, 10 nM): 113 ± 41 | relative cell number (sgRNA knockout: sgATF3, 100 nM): 9.73 ± 0.49 | relative cell number [1]: 9.02 ± 5.5 | relative cell number (sgRNA knockout: sgATF4, 1 nM): 94.6 ± 9.7 | relative cell number (sgRNA knockout: sgATF4, 10 nM): 115 ± 10 | relative cell number (sgRNA knockout: sgATF4, 100 nM): 17.7 ± 4 | relative cell number [2]: 14.3 ± 3.2 | relative cell number (sgRNA knockout: sgATF6, 1 nM): 97.7 ± 18 | relative cell number (sgRNA knockout: sgATF6, 10 nM): 99.4 ± 11 | relative cell number (sgRNA knockout: sgATF6, 100 nM): 15.5 ± 1.8 | relative cell number [3]: 7.93 ± 1.6 | relative cell number (sgRNA knockout: sgATG7, 1 nM): 91.6 ± 2.9 | relative cell number (sgRNA knockout: sgATG7, 10 nM): 92.3 ± 28 | relative cell number (sgRNA knockout: sgATG7, 100 nM): 10.4 ± 5 | relative cell number [4]: 12 ± 2.4 | relative cell number (sgRNA knockout: sgERN1, 1 nM): 90.3 ± 5 | relative cell number (sgRNA knockout: sgERN1, 10 nM): 89.8 ± 3.3 | relative cell number (sgRNA knockout: sgERN1, 100 nM): 11.7 ± 2.5 | relative cell number [5]: 16.2 ± 3.4 | relative cell number (sgRNA knockout: sgHSF1, 1 nM): 103 ± 3 | relative cell number (sgRNA knockout: sgHSF1, 10 nM): 85.2 ± 7.7 | relative cell number (sgRNA knockout: sgHSF1, 100 nM): 15.6 ± 0.12 | relative cell number [6]: 14.5 ± 9 | relative cell number (sgRNA knockout: sgHSF2, 1 nM): 72.6 ± 2.5 | relative cell number (sgRNA knockout: sgHSF2, 10 nM): 101 ± 12 | relative cell number (sgRNA knockout: sgHSF2, 100 nM): 15.3 ± 0.51 | relative cell number [7]: 13.4 ± 0.8 | relative cell number (sgRNA knockout: sgKEAP1, 1 nM): 89.2 ± 16 | relative cell number (sgRNA knockout: sgKEAP1, 10 nM): 83.8 ± 11 | relative cell number [8]: 15.5 ± 0.51 | relative cell number [9]: 14.6 ± 5.8 | relative cell number (sgRNA knockout: sgNFE2L2, 1 nM): 102 ± 12 | relative cell number [10]: 107.1 ± 0.81 | relative cell number [11]: 14.1 ± 4.1 | relative cell number [12]: 12.2 ± 3.9 | relative cell number (sgRNA knockout: sgSLC35F2, 1 nM): 107 ± 9.1 | relative cell number [13]: 102 ± 3.7 | relative cell number [14]: 9.53 ± 2.9 | relative cell number [15]: 14.5 ± 7.2 | relative cell number (sgRNA knockout: sgXBP1, 1 nM): 97.2 ± 12 | relative cell number (sgRNA knockout: sgXBP1, 10 nM): 103 ± 18 | relative cell number (sgRNA knockout: sgXBP1, 100 nM): 13.7 ± 3.5 | relative cell number [16]: 10.8 ± 6.5

Cc1sc2c(c1C)C(c1ccc(Cl)cc1)=N[C@@H](CC(=O)OC(C)(C)C)c1nnc(C)n1-2 [(+)-JQ1]
relative cell number (sgRNA knockout: sgATF3, 10 nM): 72 ± 21 | relative cell number (sgRNA knockout: sgATF3, 100 nM): 92.8 ± 4.1 | relative cell number [1]: 99.7 ± 19 | relative cell number (sgRNA knockout: sgATF3, 10000 nM): 59.6 ± 18 | relative cell number (sgRNA knockout: sgATF4, 10 nM): 104 ± 14 | relative cell number (sgRNA knockout: sgATF4, 100 nM): 142 ± 42 | relative cell number [2]: 83.1 ± 1.8 | relative cell number (sgRNA knockout: sgATF4, 10000 nM): 62.4 ± 8.9 | relative cell number (sgRNA knockout: sgATF6, 10 nM): 89.8 ± 11 | relative cell number (sgRNA knockout: sgATF6, 100 nM): 115 ± 5.8 | relative cell number [3]: 101 ± 16 | relative cell number (sgRNA knockout: sgATF6, 10000 nM): 67.2 ± 16 | relative cell number (sgRNA knockout: sgATG7, 10 nM): 96.1 ± 27 | relative cell number (sgRNA knockout: sgATG7, 100 nM): 102 ± 14 | relative cell number [4]: 96 ± 9.1 | relative cell number (sgRNA knockout: sgATG7, 10000 nM): 69.26 ± 0.24 | relative cell number (sgRNA knockout: sgERN1, 10 nM): 107 ± 2.7 | relative cell number (sgRNA knockout: sgERN1, 100 nM): 117 ± 22 | relative cell number [5]: 113 ± 6.9 | relative cell number (sgRNA knockout: sgERN1, 10000 nM): 77.6 ± 20 | relative cell number (sgRNA knockout: sgHSF1, 10 nM): 99.4 ± 2 | relative cell number (sgRNA knockout: sgHSF1, 100 nM): 95.66 ± 0.84 | relative cell number [6]: 89.3 ± 12 | relative cell number (sgRNA knockout: sgHSF1, 10000 nM): 59.1 ± 21 | relative cell number (sgRNA knockout: sgHSF2, 10 nM): 84.5 ± 16 | relative cell number (sgRNA knockout: sgHSF2, 100 nM): 86.7 ± 4 | relative cell number [7]: 80.1 ± 1.7 | relative cell number (sgRNA knockout: sgHSF2, 10000 nM): 44.6 ± 11 | relative cell number (sgRNA knockout: sgKEAP1, 10 nM): 101 ± 7.5 | relative cell number [8]: 101 ± 27 | relative cell number [9]: 110 ± 7.6 | relative cell number (sgRNA knockout: sgKEAP1, 10000 nM): 90.3 ± 2.8 | relative cell number [10]: 93.6 ± 21 | relative cell number [11]: 120 ± 21 | relative cell number [12]: 90.1 ± 27 | relative cell number (sgRNA knockout: sgNFE2L2, 10000 nM): 59.5 ± 7.1 | relative cell number [13]: 93.5 ± 9 | relative cell number [14]: 101 ± 9.1 | relative cell number [15]: 94.4 ± 4.1 | relative cell number (sgRNA knockout: sgSLC35F2, 10000 nM): 52.2 ± 12 | relative cell number (sgRNA knockout: sgXBP1, 10 nM): 92 ± 12 | relative cell number (sgRNA knockout: sgXBP1, 100 nM): 105 ± 9.1 | relative cell number [16]: 107 ± 4.9 | relative cell number (sgRNA knockout: sgXBP1, 10000 nM): 65.9 ± 16

From the supplement of paper PMC7661543
